Where a name gives a salt, the structure may show the parent alone. Some of the results follow. Hit calls seldom repeat between salt and free forms of one compound.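 Kinases were expressed as nanoluciferase fusions in K562 cells and luminescence was read every 4 h between 2 and 18 h as percent of control, DMSO set to 100% and a positive control to 0%. A time point counts as decreased when the signal drops significantly (2 sigma). The hit call is the authors' own, does not follow from the count of time points alone, and its rule is not shown.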
What was measured:
Test in all cases: kinase-Nluc reporter destabilization hit call (1 = scored as downregulated) (binary); higher = compound decreases kinase abundance
Conditions in all cases: K562; 2-18 h
IRAK3 = IRAK3 (UniProt Q9Y616)
JAK1 = JAK1 (UniProt P23458)
LCK = LCK (UniProt P06239)
LIMK1 = LIMK1 (UniProt P53667)
LIMK2 = LIMK2 (UniProt P53671)
LMTK2 = LMTK2 (UniProt Q8IWU2)
LYN = LYN (UniProt P07948)
MAP2K1 = MAP2K1 (UniProt Q02750)
MAP2K2 = MAP2K2 (UniProt P36507)
MAP4K2 = MAP4K2 (UniProt Q12851)
MAPK1 = MAPK1 (UniProt P28482)
MAPK4 = MAPK4 (UniProt P31152)
MAPKAPK2 = MAPKAPK2 (UniProt P49137)
MKNK1 = MKNK1 (UniProt Q9BUB5)
NTRK2 = NTRK2 (UniProt Q16620)
PAK4 = PAK4 (UniProt O96013)
PBK = PBK (UniProt Q96KB5)
PDK1 = PDK1 (UniProt Q15118)
NTRK3 = NTRK3 (UniProt Q16288)
PDGFRB = PDGFRB (UniProt P09619)

By UniProt entry, the sequences of proteins in these tests, tags left out. Where a name states a change or a piece, a line headed by the entry shows the natural chain unless it says otherwise.
UniProt P23458: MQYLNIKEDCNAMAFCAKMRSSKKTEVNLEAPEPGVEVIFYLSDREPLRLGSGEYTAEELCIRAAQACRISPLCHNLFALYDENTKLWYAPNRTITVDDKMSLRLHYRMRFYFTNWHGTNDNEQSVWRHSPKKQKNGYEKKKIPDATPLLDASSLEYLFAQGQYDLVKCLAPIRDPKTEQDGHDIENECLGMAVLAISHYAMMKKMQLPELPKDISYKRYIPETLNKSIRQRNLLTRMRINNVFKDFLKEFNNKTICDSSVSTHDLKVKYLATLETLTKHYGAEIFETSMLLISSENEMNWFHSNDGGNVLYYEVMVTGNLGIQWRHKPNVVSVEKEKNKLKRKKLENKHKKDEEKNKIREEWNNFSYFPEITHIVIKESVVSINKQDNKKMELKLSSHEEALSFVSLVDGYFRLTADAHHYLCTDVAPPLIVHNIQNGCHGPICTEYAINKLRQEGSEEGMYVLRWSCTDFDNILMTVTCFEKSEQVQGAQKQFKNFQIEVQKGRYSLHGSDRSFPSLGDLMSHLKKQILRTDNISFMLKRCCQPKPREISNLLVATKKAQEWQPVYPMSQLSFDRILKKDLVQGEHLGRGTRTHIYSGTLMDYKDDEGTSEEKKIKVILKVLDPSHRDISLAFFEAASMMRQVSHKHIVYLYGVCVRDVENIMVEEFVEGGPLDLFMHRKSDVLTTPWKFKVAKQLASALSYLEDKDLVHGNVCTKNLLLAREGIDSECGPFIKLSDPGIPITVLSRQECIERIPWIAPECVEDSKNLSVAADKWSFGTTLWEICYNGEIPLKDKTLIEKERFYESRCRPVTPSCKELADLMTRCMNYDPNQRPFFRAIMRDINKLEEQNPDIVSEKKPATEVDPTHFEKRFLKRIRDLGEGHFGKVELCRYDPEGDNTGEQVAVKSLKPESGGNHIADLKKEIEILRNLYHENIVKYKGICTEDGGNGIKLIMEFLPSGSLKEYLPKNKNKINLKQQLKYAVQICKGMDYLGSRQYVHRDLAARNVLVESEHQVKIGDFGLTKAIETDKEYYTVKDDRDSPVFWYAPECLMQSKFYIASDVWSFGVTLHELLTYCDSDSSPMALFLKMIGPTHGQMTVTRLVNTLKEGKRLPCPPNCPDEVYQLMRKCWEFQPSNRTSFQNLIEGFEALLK
UniProt P53671: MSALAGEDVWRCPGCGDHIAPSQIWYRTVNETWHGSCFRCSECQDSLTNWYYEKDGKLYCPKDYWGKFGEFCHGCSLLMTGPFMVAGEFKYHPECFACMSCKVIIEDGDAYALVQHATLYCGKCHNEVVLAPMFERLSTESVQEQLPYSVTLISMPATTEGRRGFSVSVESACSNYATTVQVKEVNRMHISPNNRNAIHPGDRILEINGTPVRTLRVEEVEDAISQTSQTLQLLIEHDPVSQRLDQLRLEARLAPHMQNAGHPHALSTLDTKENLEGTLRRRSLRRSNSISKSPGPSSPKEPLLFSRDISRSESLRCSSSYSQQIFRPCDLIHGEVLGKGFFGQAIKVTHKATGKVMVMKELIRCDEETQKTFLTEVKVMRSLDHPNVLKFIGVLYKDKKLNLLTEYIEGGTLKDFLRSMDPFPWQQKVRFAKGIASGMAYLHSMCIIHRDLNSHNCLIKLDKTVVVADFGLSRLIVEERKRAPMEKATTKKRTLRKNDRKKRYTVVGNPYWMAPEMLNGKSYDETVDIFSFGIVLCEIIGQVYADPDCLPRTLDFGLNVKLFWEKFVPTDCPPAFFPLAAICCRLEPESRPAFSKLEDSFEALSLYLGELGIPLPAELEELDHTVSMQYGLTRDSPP
UniProt P07948: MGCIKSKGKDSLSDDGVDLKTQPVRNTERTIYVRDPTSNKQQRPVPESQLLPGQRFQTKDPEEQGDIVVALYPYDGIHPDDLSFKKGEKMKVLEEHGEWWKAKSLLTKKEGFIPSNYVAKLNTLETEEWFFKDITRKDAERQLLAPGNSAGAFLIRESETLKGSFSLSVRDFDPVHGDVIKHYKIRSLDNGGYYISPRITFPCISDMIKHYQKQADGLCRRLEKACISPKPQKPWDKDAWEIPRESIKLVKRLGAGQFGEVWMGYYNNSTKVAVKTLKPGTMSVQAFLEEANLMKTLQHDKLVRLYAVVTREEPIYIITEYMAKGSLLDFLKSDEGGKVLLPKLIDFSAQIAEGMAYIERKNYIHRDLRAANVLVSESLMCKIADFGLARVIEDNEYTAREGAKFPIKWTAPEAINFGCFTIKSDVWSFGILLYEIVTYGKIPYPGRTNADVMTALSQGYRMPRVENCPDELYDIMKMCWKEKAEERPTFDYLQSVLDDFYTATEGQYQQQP
UniProt Q12851: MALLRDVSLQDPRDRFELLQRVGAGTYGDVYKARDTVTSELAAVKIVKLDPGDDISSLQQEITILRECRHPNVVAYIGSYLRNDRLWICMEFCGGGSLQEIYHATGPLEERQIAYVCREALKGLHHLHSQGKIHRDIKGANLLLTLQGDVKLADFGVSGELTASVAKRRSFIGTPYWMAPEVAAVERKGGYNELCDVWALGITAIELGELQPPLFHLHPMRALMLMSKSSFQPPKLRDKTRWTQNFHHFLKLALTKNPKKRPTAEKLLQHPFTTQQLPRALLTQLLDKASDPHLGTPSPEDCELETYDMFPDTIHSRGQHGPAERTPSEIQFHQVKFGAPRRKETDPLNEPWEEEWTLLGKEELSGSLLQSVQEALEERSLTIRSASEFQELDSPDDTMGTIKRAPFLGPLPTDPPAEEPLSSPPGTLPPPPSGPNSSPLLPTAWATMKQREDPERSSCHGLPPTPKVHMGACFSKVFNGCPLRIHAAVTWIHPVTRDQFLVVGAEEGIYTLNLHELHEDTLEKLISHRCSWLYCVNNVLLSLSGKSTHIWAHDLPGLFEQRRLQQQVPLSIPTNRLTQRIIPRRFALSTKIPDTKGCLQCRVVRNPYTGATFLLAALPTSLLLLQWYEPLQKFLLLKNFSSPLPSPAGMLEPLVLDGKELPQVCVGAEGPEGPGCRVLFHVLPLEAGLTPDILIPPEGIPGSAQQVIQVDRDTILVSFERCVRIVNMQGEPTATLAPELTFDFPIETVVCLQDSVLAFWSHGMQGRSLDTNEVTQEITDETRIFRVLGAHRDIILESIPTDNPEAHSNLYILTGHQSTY
UniProt P31152, whole entry: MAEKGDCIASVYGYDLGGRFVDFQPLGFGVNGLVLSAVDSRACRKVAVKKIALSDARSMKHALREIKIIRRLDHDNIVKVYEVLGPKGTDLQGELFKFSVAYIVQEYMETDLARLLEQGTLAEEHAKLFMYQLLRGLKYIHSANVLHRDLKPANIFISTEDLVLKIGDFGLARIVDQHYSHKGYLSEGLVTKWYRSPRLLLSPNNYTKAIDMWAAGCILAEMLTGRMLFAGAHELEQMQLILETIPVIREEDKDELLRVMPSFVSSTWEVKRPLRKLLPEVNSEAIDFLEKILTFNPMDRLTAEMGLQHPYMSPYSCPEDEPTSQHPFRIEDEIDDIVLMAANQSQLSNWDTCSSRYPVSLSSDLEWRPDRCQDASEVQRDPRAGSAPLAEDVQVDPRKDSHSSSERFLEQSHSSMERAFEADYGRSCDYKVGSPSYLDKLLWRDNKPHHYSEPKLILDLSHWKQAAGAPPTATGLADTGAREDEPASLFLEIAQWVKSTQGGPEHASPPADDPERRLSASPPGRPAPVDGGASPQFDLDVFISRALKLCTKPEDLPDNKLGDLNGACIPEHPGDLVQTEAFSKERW
UniProt P49137, whole entry, looked up: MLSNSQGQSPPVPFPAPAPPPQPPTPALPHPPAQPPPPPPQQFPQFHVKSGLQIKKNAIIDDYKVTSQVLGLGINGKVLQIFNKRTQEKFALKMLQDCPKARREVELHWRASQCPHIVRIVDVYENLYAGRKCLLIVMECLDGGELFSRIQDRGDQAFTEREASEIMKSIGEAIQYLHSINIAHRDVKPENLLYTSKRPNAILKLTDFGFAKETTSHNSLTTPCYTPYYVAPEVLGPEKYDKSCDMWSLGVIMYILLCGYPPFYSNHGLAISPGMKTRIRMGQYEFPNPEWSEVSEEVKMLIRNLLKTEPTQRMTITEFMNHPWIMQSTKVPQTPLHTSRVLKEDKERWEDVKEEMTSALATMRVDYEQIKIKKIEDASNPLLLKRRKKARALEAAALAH
UniProt Q16620, whole entry, looked up: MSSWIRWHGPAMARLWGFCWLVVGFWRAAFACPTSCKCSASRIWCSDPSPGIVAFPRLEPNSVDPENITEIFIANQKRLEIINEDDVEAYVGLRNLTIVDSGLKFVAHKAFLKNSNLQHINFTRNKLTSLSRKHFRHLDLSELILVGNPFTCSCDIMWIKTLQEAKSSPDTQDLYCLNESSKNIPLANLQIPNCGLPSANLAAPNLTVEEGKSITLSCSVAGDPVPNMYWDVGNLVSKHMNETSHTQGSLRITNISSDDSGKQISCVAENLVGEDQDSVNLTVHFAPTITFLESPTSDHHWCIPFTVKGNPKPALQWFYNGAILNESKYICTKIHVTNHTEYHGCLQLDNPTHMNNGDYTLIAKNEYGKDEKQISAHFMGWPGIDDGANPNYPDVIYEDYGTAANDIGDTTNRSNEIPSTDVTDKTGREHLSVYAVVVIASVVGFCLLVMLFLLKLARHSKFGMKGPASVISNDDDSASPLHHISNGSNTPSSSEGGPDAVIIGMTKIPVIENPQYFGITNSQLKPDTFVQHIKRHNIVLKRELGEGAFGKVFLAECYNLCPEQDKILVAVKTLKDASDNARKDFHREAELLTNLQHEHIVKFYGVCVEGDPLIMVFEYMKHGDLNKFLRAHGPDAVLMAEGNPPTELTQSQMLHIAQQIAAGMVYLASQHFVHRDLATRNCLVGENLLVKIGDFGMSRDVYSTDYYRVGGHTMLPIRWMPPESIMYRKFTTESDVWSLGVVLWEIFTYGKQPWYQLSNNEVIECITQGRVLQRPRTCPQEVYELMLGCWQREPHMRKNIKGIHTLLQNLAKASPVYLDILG
UniProt Q15118, whole entry, looked up: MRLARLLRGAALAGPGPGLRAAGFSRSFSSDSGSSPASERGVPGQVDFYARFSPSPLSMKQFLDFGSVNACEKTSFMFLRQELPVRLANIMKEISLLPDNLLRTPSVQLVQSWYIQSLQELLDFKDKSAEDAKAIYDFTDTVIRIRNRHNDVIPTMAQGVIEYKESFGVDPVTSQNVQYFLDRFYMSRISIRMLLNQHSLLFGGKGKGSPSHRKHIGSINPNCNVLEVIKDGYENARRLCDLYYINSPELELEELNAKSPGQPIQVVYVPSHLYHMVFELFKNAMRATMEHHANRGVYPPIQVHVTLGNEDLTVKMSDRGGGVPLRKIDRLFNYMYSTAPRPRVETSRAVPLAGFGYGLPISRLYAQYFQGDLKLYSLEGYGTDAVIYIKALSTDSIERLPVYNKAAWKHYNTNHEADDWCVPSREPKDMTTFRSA
UniProt P09619, whole entry: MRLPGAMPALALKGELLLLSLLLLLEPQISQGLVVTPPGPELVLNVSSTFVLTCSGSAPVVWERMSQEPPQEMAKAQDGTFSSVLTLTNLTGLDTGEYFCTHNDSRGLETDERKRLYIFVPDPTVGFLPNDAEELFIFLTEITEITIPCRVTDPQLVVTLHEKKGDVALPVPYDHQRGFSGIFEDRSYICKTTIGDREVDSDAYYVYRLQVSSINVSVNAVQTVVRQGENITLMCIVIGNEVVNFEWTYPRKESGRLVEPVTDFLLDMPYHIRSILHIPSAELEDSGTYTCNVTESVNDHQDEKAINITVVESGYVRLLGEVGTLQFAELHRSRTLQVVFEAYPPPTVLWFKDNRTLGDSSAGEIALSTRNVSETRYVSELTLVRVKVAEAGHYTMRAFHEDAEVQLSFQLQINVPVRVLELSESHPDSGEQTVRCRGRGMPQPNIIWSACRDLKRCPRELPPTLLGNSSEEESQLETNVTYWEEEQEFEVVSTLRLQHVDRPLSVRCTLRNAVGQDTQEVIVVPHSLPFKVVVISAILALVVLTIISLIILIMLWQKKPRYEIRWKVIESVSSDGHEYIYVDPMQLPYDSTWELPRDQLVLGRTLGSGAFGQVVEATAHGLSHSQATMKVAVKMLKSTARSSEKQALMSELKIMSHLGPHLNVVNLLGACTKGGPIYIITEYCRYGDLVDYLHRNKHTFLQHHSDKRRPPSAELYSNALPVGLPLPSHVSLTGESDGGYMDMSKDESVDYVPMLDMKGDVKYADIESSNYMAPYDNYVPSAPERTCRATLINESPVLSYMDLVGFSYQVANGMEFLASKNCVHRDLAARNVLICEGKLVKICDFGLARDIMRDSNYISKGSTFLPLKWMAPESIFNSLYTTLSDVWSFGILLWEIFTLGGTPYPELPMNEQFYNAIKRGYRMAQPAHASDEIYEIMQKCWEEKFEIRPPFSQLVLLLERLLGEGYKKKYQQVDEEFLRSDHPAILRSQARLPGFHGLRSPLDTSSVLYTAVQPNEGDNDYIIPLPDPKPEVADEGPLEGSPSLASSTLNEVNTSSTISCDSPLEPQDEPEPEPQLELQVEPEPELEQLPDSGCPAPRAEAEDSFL

Measured: kinase-Nluc reporter destabilization hit call

COc1cc2c(N3CCN(C(=O)Nc4ccc(OC(C)C)cc4)CC3)ncnc2cc1OCCCN1CCCCC1 [Tandutinib (hydrochloride)] (10 µM)
inactive: IRAK3 = 0 | JAK1 = 0 | LCK 0 | LIMK1 = 0 | LIMK2 = 0 | LMTK2 = 0 | LYN 0 | MAP2K1 = 0 | MAP2K2 = 0 | MAP4K2 = 0 | MAPK1 = 0 | MAPK4 = 0 | MAPKAPK2 = 0 | MKNK1 = 0 | NTRK2 = 0 | PAK4 = 0 | PBK 0 | PDK1 = 0

Cc1ccccc1-n1c([C@H](C)Nc2nc(N)nc3nc[nH]c23)nc2cccc(C)c2c1=O [CAL-130 (Hydrochloride)] (10 µM)
inactive: IRAK3 = 0 | JAK1 = 0 | LCK 0 | LIMK1 = 0 | LIMK2 = 0 | LMTK2 = 0 | LYN 0 | MAP2K1 = 0 | MAP2K2 = 0 | MAP4K2 = 0 | MAPK1 = 0 | MAPK4 = 0 | MAPKAPK2 = 0 | MKNK1 = 0 | NTRK2 = 0 | NTRK3 = 0 | PAK4 = 0 | PBK 0 | PDGFRB 0 | PDK1 = 0

Cn1cnc(Cn2ccc3ccc(CNCc4[nH]c5ccccc5c4[C@H]4NC(=O)c5ccc(O)cc54)cc32)c1 (10 µM)
inactive: IRAK3 = 0 | JAK1 = 0 | LCK 0 | LIMK1 = 0 | LIMK2 = 0 | LMTK2 = 0 | LYN 0 | MAP2K1 = 0 | MAP2K2 = 0 | MAP4K2 = 0 | MAPK1 = 0 | MAPK4 = 0 | MAPKAPK2 = 0 | MKNK1 = 0 | NTRK2 = 0 | NTRK3 = 0 | PAK4 = 0 | PBK 0 | PDGFRB 0 | PDK1 = 0

CN1CCN(c2cnc3c(C4CCN(C(=O)c5ccc(OC(F)(F)F)cc5N)CC4)ncnc3c2)CC1 (10 µM)
inactive: IRAK3 = 0 | JAK1 = 0 | LCK 0 | LIMK1 = 0 | LIMK2 = 0 | LMTK2 = 0 | LYN 0 | MAP2K1 = 0 | MAP2K2 = 0 | MAP4K2 = 0 | MAPK1 = 0 | MAPK4 = 0 | MAPKAPK2 = 0 | MKNK1 = 0 | NTRK2 = 0 | NTRK3 = 0 | PAK4 = 0 | PBK 0 | PDGFRB 0 | PDK1 = 0

O=C(NCCN1CCCC1)c1cc(-c2ccc(CN3CCOCC3)cc2)nc2ccc(F)cc12 (10 µM)
inactive: IRAK3 = 0 | JAK1 = 0 | LCK 0 | LIMK1 = 0 | LIMK2 = 0 | LMTK2 = 0 | LYN 0 | MAP2K1 = 0 | MAP2K2 = 0 | MAP4K2 = 0 | MAPK1 = 0 | MAPK4 = 0 | MAPKAPK2 = 0 | MKNK1 = 0 | NTRK2 = 0 | NTRK3 = 0 | PAK4 = 0 | PBK 0 | PDGFRB 0 | PDK1 = 0

Nc1cc(C(F)(F)F)c(-c2cc(N3CCOCC3)nc(N3CCOCC3)n2)cn1 [Buparlisib (Hydrochloride)] (2.5 µM)
inactive: IRAK3 = 0 | JAK1 = 0 | LCK 0 | LIMK1 = 0 | LIMK2 = 0 | LMTK2 = 0 | LYN 0 | MAP2K1 = 0 | MAP2K2 = 0 | MAP4K2 = 0 | MAPK1 = 0 | MAPK4 = 0 | MAPKAPK2 = 0 | MKNK1 = 0 | NTRK2 = 0 | NTRK3 = 0 | PAK4 = 0 | PBK 0 | PDGFRB 0 | PDK1 = 0

CCN1CCN(Cc2ccc(Nc3ncc(F)c(-c4cc(F)c5nc(C)n(C(C)C)c5c4)n3)nc2)CC1 [Abemaciclib (methanesulfonate)] (10 µM)
inactive: IRAK3 = 0 | JAK1 = 0 | LCK 0 | LIMK1 = 0 | LIMK2 = 0 | LMTK2 = 0 | LYN 0 | MAP2K1 = 0 | MAP2K2 = 0 | MAP4K2 = 0 | MAPK1 = 0 | MAPK4 = 0 | MAPKAPK2 = 0 | MKNK1 = 0 | NTRK2 = 0 | NTRK3 = 0 | PAK4 = 0 | PBK 0 | PDGFRB 0 | PDK1 = 0

Oc1cc(O)c2cc(O)c(-c3cc(O)c(O)c(O)c3)[o+]c2c1 [Delphinidin (chloride)] (10 µM)
inactive: IRAK3 = 0 | JAK1 = 0 | LCK 0 | LIMK1 = 0 | LIMK2 = 0 | LMTK2 = 0 | LYN 0 | MAP2K1 = 0 | MAP2K2 = 0 | MAP4K2 = 0 | MAPK1 = 0 | MAPK4 = 0 | MAPKAPK2 = 0 | MKNK1 = 0 | NTRK2 = 0 | NTRK3 = 0 | PAK4 = 0 | PBK 0 | PDGFRB 0 | PDK1 = 0

Cn1cnc2c(F)c(Nc3ccc(Br)cc3Cl)c(C(=O)NOCCO)cc21 [Selumetinib] (10 µM)
inactive: IRAK3 = 0 | JAK1 = 0 | LCK 0 | LIMK1 = 0 | LIMK2 = 0 | LMTK2 = 0 | LYN 0 | MAP2K1 = 0 | MAP2K2 = 0 | MAP4K2 = 0 | MAPK1 = 0 | MAPK4 = 0 | MAPKAPK2 = 0 | MKNK1 = 0 | NTRK2 = 0 | NTRK3 = 0 | PAK4 = 0 | PBK 0 | PDGFRB 0 | PDK1 = 0

C[C@@H]1CCN(C(=O)CC#N)C[C@@H]1N(C)c1ncnc2[nH]ccc12 [Tofacitinib (citrate)] (10 µM)
inactive: IRAK3 = 0 | LCK 0 | LIMK1 = 0 | LIMK2 = 0 | LMTK2 = 0 | LYN 0 | MAP2K1 = 0 | MAP2K2 = 0 | MAP4K2 = 0 | MAPK1 = 0 | MAPK4 = 0 | MAPKAPK2 = 0 | MKNK1 = 0 | NTRK2 = 0 | NTRK3 = 0 | PAK4 = 0 | PBK 0 | PDK1 = 0

O=C(NCCN1CCOCC1)c1cc2c(Oc3ccc(NC(=O)C4(C(=O)Nc5ccc(F)cc5)CC4)cc3)ccnc2[nH]1 [Tyrosine kinase inhibitor] (10 µM)
inactive: IRAK3 = 0 | JAK1 = 0 | LCK 0 | LIMK1 = 0 | LIMK2 = 0 | LMTK2 = 0 | LYN 0 | MAP2K1 = 0 | MAP2K2 = 0 | MAP4K2 = 0 | MAPK1 = 0 | MAPK4 = 0 | MAPKAPK2 = 0 | MKNK1 = 0 | NTRK2 = 0 | NTRK3 = 0 | PAK4 = 0 | PBK 0 | PDGFRB 0 | PDK1 = 0

CCOc1ccc2cc(-c3nn(CC4CCN(C)CC4)c4ncnc(N)c34)ccc2n1 (10 µM)
inactive: IRAK3 = 0 | JAK1 = 0 | LCK 0 | LIMK1 = 0 | LIMK2 = 0 | LMTK2 = 0 | LYN 0 | MAP2K1 = 0 | MAP2K2 = 0 | MAP4K2 = 0 | MAPK1 = 0 | MAPK4 = 0 | MAPKAPK2 = 0 | MKNK1 = 0 | NTRK2 = 0 | NTRK3 = 0 | PAK4 = 0 | PBK 0 | PDGFRB 0 | PDK1 = 0

Copied from the results shown (two entries):
C[C@@H]1CCN(C(=O)CC#N)C[C@@H]1N(C)c1ncnc2[nH]ccc12 [Tofacitinib (citrate)] (10 µM)
inactive: IRAK3 = 0 | LCK 0 | LIMK1 = 0 | LIMK2 = 0 | LMTK2 = 0 | LYN 0 | MAP2K1 = 0 | MAP2K2 = 0 | MAP4K2 = 0 | MAPK1 = 0 | MAPK4 = 0 | MAPKAPK2 = 0 | MKNK1 = 0 | NTRK2 = 0 | NTRK3 = 0 | PAK4 = 0 | PBK 0 | PDK1 = 0

O=C(NCCN1CCOCC1)c1cc2c(Oc3ccc(NC(=O)C4(C(=O)Nc5ccc(F)cc5)CC4)cc3)ccnc2[nH]1 [Tyrosine kinase inhibitor] (10 µM)
inactive: IRAK3 = 0 | JAK1 = 0 | LCK 0 | LIMK1 = 0 | LIMK2 = 0 | LMTK2 = 0 | LYN 0 | MAP2K1 = 0 | MAP2K2 = 0 | MAP4K2 = 0 | MAPK1 = 0 | MAPK4 = 0 | MAPKAPK2 = 0 | MKNK1 = 0 | NTRK2 = 0 | NTRK3 = 0 | PAK4 = 0 | PBK 0 | PDGFRB 0 | PDK1 = 0

(cont.)

COc1cc(Nc2ncc(F)c(Nc3ccc4c(n3)NC(=O)C(C)(C)O4)n2)cc(OC)c1OC (10 µM)
inactive: IRAK3 = 0 | JAK1 = 0 | LIMK1 = 0 | LIMK2 = 0 | LMTK2 = 0 | LYN 0 | MAP2K1 = 0 | MAP2K2 = 0 | MAP4K2 = 0 | MAPK1 = 0 | MAPK4 = 0 | MAPKAPK2 = 0 | MKNK1 = 0 | NTRK2 = 0 | PAK4 = 0 | PBK 0 | PDGFRB 0 | PDK1 = 0

CN(CC(=O)N(Cc1ccc(C2CCCCC2)cc1)c1ccc(C(=O)NO)cc1)S(=O)(=O)c1c(F)c(F)c(F)c(F)c1F (2.5 µM)
inactive: IRAK3 = 0 | JAK1 = 0 | LCK 0 | LIMK1 = 0 | LIMK2 = 0 | LMTK2 = 0 | LYN 0 | MAP2K1 = 0 | MAP2K2 = 0 | MAP4K2 = 0 | MAPK1 = 0 | MAPK4 = 0 | MAPKAPK2 = 0 | MKNK1 = 0 | NTRK2 = 0 | NTRK3 = 0 | PAK4 = 0 | PBK 0 | PDGFRB 0 | PDK1 = 0

CCc1cc2c(cc1N1CCC(N3CCOCC3)CC1)C(C)(C)c1[nH]c3cc(C#N)ccc3c1C2=O [Alectinib (Hydrochloride)] (2 µM)
inactive: IRAK3 = 0 | JAK1 = 0 | LCK 0 | LIMK1 = 0 | LIMK2 = 0 | LMTK2 = 0 | LYN 0 | MAP2K1 = 0 | MAP2K2 = 0 | MAP4K2 = 0 | MAPK1 = 0 | MAPK4 = 0 | MAPKAPK2 = 0 | MKNK1 = 0 | NTRK2 = 0 | NTRK3 = 0 | PAK4 = 0 | PBK 0 | PDGFRB 0 | PDK1 = 0

NCCNS(=O)(=O)c1cccc2c(Cl)cccc12 [A-3 (hydrochloride)] (10 µM)
inactive: IRAK3 = 0 | JAK1 = 0 | LCK 0 | LIMK1 = 0 | LIMK2 = 0 | LMTK2 = 0 | LYN 0 | MAP2K1 = 0 | MAP2K2 = 0 | MAP4K2 = 0 | MAPK1 = 0 | MAPK4 = 0 | MAPKAPK2 = 0 | MKNK1 = 0 | NTRK2 = 0 | NTRK3 = 0 | PAK4 = 0 | PBK 0 | PDGFRB 0 | PDK1 = 0

COc1cc(Nc2ncc(F)c(Nc3ccc4c(n3)NC(=O)C(C)(C)O4)n2)cc(OC)c1OC [R406 (free base)] (10 µM)
inactive: IRAK3 = 0 | JAK1 = 0 | LIMK1 = 0 | LIMK2 = 0 | LMTK2 = 0 | LYN 0 | MAP2K1 = 0 | MAP2K2 = 0 | MAP4K2 = 0 | MAPK1 = 0 | MAPK4 = 0 | MAPKAPK2 = 0 | MKNK1 = 0 | NTRK2 = 0 | PAK4 = 0 | PBK 0 | PDGFRB 0 | PDK1 = 0
